Data from patent US11827663B2, “Use of UAP inhibitors to inhibit flux through the hexosamine biosynthetic pathway” (The Johns Hopkins University, priority 2014, dated 2023).
pIC50: −log10 of the molar value. Some entries share one result that the patent states for a list of compounds. At least one structure is not confirmed: it was looked up by name or label, or the drawing left a doubt.

System: primary human adipose stem cells (hASCs)
Assay: Cell count assay in control cells (human ASCs)
Assay type: cell-based
Conditions: two days of exposure; 300 is the highest concentration tested
Description: FIG. 4A and FIG. 4B depict histogram results of cell count assays after two days of exposure to each analog in cancer cell lines (SW1990 and PANC-1) and in control cells (human ASCs). […] In all cases, IC50 values were greater than 300 which is the highest concentration tested, for the ACSs, while the Ac4Glc2Bz analogs and Ac4Gal2Bz analogs were effective to reduce cell numbers in both cancer cell lines.

| Compound | pIC50 |
| --- | --- |
| CC(=O)OC[C@H]1OC(OC(C)=O)[C@H](NC(=O)c2ccccc2O)[C@@H](OC(C)=O)[C@@H]1OC(C)=O (some centres unmarked) [Ac4Glc2NBz-2-OH] | < 3.52 |
| CC(=O)OC1OC(CO)C(OC(C)=O)C(OC(C)=O)C1NC(=O)c1ccccc1 (centres unmarked) [1,3,4-O-Ac3Glc2Bz] | < 3.52 |
